In US20050004126A1 (priority 2001, published 2005):
Structures were worked out from names or drawings and are uncertain.

target: MMP-13CD (catalytic domain of collagenase 3) (Homo sapiens, UniProt P45452); assay: Thiopeptolide hydrolysis assay, MMP-13; details: read-out: MMP 13 IC50 μM; Table III;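 also: inhibition of enzymatic thiopeptolide substrate cleavage (100 µM) in pH 6.0 MES buffer with CaCl2 and DTNB, comparing hydrolysis with versus without inhibitor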

Question: Which IC50 does the source give for `Cc1ccc(-n2c(=O)[nH]c3sc(C(=O)OCc4ccccc4)c(C)c3c2=O)cc1` here?
Answer: The IC50 was 10 µM.

same assay, conditions: read-out: MMP13 IC50 μM; Table IVb

Question: Which IC50 does the source give for `Cn1c(=O)n(Cc2ccccc2)c(=O)c2cc(C(=O)NCc3ccc(O)cc3)ccc21` here?
Answer: The IC50 was 0.02 µM.

Question: How did the IC50 turn out when `COc1ccc(CNC(=O)c2ccc3c(c2)c(=O)n(Cc2ccc(C(=O)OCC(C)(C)CN(C)C)cc2)c(=O)n3C)cc1` was run?
Answer: Its IC50 is 0.06 µM.

Question: For `COc1ccc(CNC(=O)c2ccc3c(c2)c(=O)n(Cc2ccc(N(S(C)(=O)=O)S(C)(=O)=O)cc2)c(=O)n3C)cc1`, which IC50 is on record?
Answer: The IC50 was 0.075 µM.

Question: Which IC50 does the source give for `COc1ccc(CNC(=O)c2ccc3c(c2)c(=O)n(Cc2ccc(OC)c(F)c2)c(=O)n3C)cc1` here?
Answer: Its IC50 is 0.0058 µM.

Question: For `COc1ccc(CNC(=O)c2ccc3c(c2)c(=O)n(CCC(=O)O)c(=O)n3C)cc1`, which IC50 is on record?
Answer: The IC50 was 9.7 µM.

Question: `Cn1c(=O)n(Cc2ccncc2)c(=O)c2cc(C(=O)NCc3ccc4c(c3)OCO4)ccc21` was tested. Which IC50 did it give?
Answer: The IC50 was 0.011 µM.

Question: How did the IC50 turn out when `COc1ccc(CNC(=O)c2ccc3c(c2)c(=O)n(Cc2ccncc2)c(=O)n3C)cc1` was run?
Answer: Its IC50 is 0.021 µM.
